Laboratory results published in the supplement of paper PMC9744312.
Structures can show the parent of a compound that is named as a salt. Some of the results follow. This is a noisy data set.

test system: Peyronie's disease tunica albuginea primary fibroblasts; test: inhibition of TGF-beta1-induced alpha-SMA expression (myofibroblast transformation), relative to TGF-beta1-only and untreated controls; higher = stronger inhibition of myofibroblast transformation; conditions: 10 µM; TGF-beta1 10 ng/mL; 72 h

Row | SMILES | inhibition of TGF-beta1-induced alpha-SMA expression
1 | CCn1cc(C(=O)O)c(=O)c2cc(F)c(N3CCNCC3)nc21 [Enoxacin Sesquihydrate] | -15.4%
2 | CCn1cc(C(=O)O)c(=O)c2cc(F)c(N3CCNCC3)nc21 [Enoxacin] | 16.9%
3 | CC(=O)OCC(=O)NCCCOc1cccc(CN2CCCCC2)c1 [Roxatidine Acetate HCl] | 13.1%
4 | OC[C@H]1OC(O)[C@H](O)[C@@H](O)[C@@H]1O (stereo not given in full) [Dextrose] | 27.7%
5 | CO/N=C(\C(=O)N[C@@H]1C(=O)N2C(C(=O)O)=CCS[C@H]12)c1csc(N)n1 [Ceftizoxime] | 18.3%
6 | CCCc1ncc(C[n+]2ccccc2C)c(N)n1 [Amprolium HCl] | -7.95%
7 | CC(C(=O)O)c1cccc(Oc2ccccc2)c1 (stereo not given) [Fenoprofen calcium hydrate] | 15.2%
8 | CC(C(=O)O)c1cccc(Oc2ccccc2)c1 (stereo not given) [Fenoprofen Calcium] | 11.5%
9 | Oc1ccc(C2CNCCc3c2cc(O)c(O)c3Cl)cc1 (stereo not given) [Fenoldopam mesylate] | -52.7%
10 | CC(C)=CCOc1ccc(/C=C/C(=O)c2ccc(OCC=C(C)C)cc2OCC(=O)O)cc1 [Sofalcone] | 17.1%
11 | CCN(CC)CCCC(C)Nc1ccnc2cc(Cl)ccc12 (stereo not given) [Chloroquine Phosphate] | 60.3%
12 | CS(=O)(=O)c1ccc([C@@H](O)[C@@H](CF)NC(=O)C(Cl)Cl)cc1 [Florfenicol] | -15.5%
13 | C[C@@H](O)[C@H]1C(=O)N2C(C(=O)O)=C(S[C@@H]3CN[C@H](C(=O)Nc4cccc(C(=O)O)c4)C3)[C@H](C)[C@H]12 [Ertapenem sodium] | 26.9%
14 | CCOCCn1c(C2CCN(CCc3ccc(C(C)(C)C(=O)O)cc3)CC2)nc2ccccc21 [Bilastine] | 24%
15 | CCCOC(C(=O)OC1CCN(C)CC1)(c1ccccc1)c1ccccc1 [Propiverine hydrochloride] | 13.5%
16 | C[N+](C)(C)CCOP(=O)(O)OP(=O)([O-])OC[C@H]1O[C@@H](n2ccc(N)nc2=O)[C@H](O)[C@@H]1O [Citicoline sodium] | -1.6%
17 | Nc1ccc(S(=O)(=O)NC(=O)c2ccccc2)cc1 [Sulfabenzamide] | 75.8%
18 | CCCCCOc1ccc(-c2ccc(-c3ccc(C(=O)N[C@H]4C[C@@H](O)[C@@H](O)NC(=O)[C@@H]5[C@@H](O)[C@@H](C)CN5C(=O)[C@H]([C@@H](C)O)NC(=O)[C@H]([C@H](O)[C@@H](O)c5ccc(O)cc5)NC(=O)[C@@H]5C[C@@H](O)CN5C(=O)[C@H]([C@@H](C)O)NC4=O)cc3)cc2)cc1 | > 100%
19 | CC(C)c1nc(N(C)S(C)(=O)=O)nc(-c2ccc(F)cc2)c1/C=C/[C@@H](O)C[C@@H](O)CC(=O)O [Rosuvastatin] | 67%
20 | CC(C)c1nc(N(C)S(C)(=O)=O)nc(-c2ccc(F)cc2)c1/C=C/[C@@H](O)C[C@@H](O)CC(=O)O [Rosuvastatin Calcium] | 54.7%
21 | N[C@@H](CS)C(=O)O [L-Cysteine HCl] | 3.99%
22 | C1N2CN3CN1CN(C2)C3 [Methenamine] | 15.9%
23 | C[Se]CC[C@H](N)C(=O)O [L-SelenoMethionine] | -5.41%

Some values from the entries so far.
inhibition of TGF-beta1-induced alpha-SMA expression with CC(C(=O)O)c1cccc(Oc2ccccc2)c1 (stereo not given) [Fenoprofen Calcium] reads 11.5%
inhibition of TGF-beta1-induced alpha-SMA expression with CC(=O)OCC(=O)NCCCOc1cccc(CN2CCCCC2)c1 [Roxatidine Acetate HCl] reads 13.1%
inhibition of TGF-beta1-induced alpha-SMA expression with CS(=O)(=O)c1ccc([C@@H](O)[C@@H](CF)NC(=O)C(Cl)Cl)cc1 [Florfenicol] reads -15.5%
inhibition of TGF-beta1-induced alpha-SMA expression with OC[C@H]1OC(O)[C@H](O)[C@@H](O)[C@@H]1O (stereo not given in full) [Dextrose] reads 27.7%

Additional entries

Row | SMILES | inhibition of TGF-beta1-induced alpha-SMA expression
24 | CCCCCN(C)CCC(O)(P(=O)(O)O)P(=O)(O)O [Ibandronate sodium] | 15.2%
25 | CC(C)OC(=O)C(C(=O)OC(C)C)=C1SC=CS1 [Malotilate] | -5.3%
26 | CS(=O)(=O)Nc1cc2occ(NC=O)c(=O)c2cc1Oc1ccccc1 [Iguratimod] | 40.3%
27 | C[C@@H](O)[C@H]1C(=O)N2C(C(=O)O)=C(SCCNC=N)C[C@H]12 [Imipenem] | 28.3%
28 | COc1cccc(CCc2ccccc2OCC(CN(C)C)OC(=O)CCC(=O)O)c1 (stereo not given) [Sarpogrelate hydrochloride] | 26.3%
29 | c1ccc2c(c1)CCCC2C1=NCCN1 (stereo not given) [Tetrahydrozoline HCl] | 0.558%
30 | CC(=O)S[C@@H]1CC2=CC(=O)CC[C@]2(C)[C@H]2CC[C@@]3(C)[C@@H](CC[C@@]34CCC(=O)O4)[C@H]12 [Spironolactone] | -49.4%
31 | C#Cc1cccc(Nc2ncnc3cc(OC)c(OCCCCCCC(=O)NO)cc23)c1 | > 100%
32 | CCCc1cc(C(N)=S)ccn1 [Protionamide] | 7.63%
33 | C=C1CC[C@H](O)C/C1=C/C=C1\CCC[C@]2(C)[C@@H]([C@H](C)CCCC(C)C)CC[C@@H]12 [cholecalciferol (Vitamin D3)] | 16.1%
34 | C[C@H]1O[C@H](O[C@H]2[C@H](O)[C@@H](O)[C@@H](O[C@H]3[C@H](O)[C@@H](O)C(O)O[C@@H]3CO)O[C@@H]2CO)[C@H](O)[C@@H](O)[C@@H]1N[C@H]1C=C(CO)[C@@H](O)[C@H](O)[C@H]1O (stereo not given in full) [Acarbose] | 16.7%
35 | CC[C@H]1[C@@H](O)[C@@H]2[C@H](CC[C@]3(C)[C@@H]([C@H](C)CCC(=O)O)CC[C@@H]23)[C@@]2(C)CC[C@@H](O)C[C@@H]12 [Obeticholic Acid] | 3.44%
36 | CNC1CCCN(c2c(F)cc3c(=O)c(C(=O)O)cn(C4CC4)c3c2OC)C1 (stereo not given) [Balofloxacin] | 6.3%
37 | CC(C)Oc1ccc(-c2nc(-c3cccc4c3CC[C@@H]4NCCO)no2)cc1C#N [Ozanimod (RPC1063)] | 38.9%
38 | CN1CCC(=C2c3ccccc3C=Cc3ccccc32)CC1 [Cyproheptadine HCl] | 32.4%
39 | CN1CCC(=C2c3ccccc3C=Cc3ccccc32)CC1 [Cyproheptadine hydrochloride] | 87.9%
40 | CO[C@H]1/C=C/O[C@@]2(C)Oc3c(C)c(O)c4c(O)c(c(/C=N/N5CCN(C6CCCC6)CC5)c(O)c4c3C2=O)NC(=O)/C(C)=C\C=C\[C@H](C)[C@H](O)[C@@H](C)[C@@H](O)[C@@H](C)[C@H](OC(C)=O)[C@@H]1C [Rifapentine] | -5.79%
41 | N=C(N)NC(=N)NCCc1ccccc1 [Phenformin HCl] | 17.5%
42 | NCCc1c[nH]cn1 [Histamine Phosphate] | 8.5%
43 | NCCc1c[nH]cn1 [Histamine] | 2.07%
44 | NCCc1c[nH]cn1 [Histamine 2HCl] | 9.1%
45 | OC(Cn1cncn1)(Cn1cncn1)c1ccc(F)cc1F [Fluconazole] | -3.18%
